Measurements published in the supplement of paper PMC5770031.
The other results are listed elsewhere or left out. This data set is noisy: repeats of one test often differ as much as different tests do.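 ATM8/balancer (normal ATM) heterozygous flies were crossed on treated food; parents laid eggs 5–6 days, offspring developed ~12 days, so parents and larvae ingested compound. Readout: fraction of emerged adults homozygous for ATM8 versus 2% DMSO controls. Compounds were neutral at 10–20% homozygotes, harmful below 10%, helpful above 20%.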 Square brackets hold non-standard residues; d marks the D form. Peptide text beside a SMILES is read from it. pGlu = O=C1CC[C@@H](C(=O)O)N1; Thz = O=C(O)[C@@H]1CSCN1

Each compound was assayed on Drosophila melanogaster ATM8 (temperature-sensitive ATM allele) (assay: fraction of eclosed F1 progeny that are homozygous ATM8 (rescue of developmental lethality); higher = more rescue of ATM8 developmental lethality; extreme values may be limits of the assay). Conditions: compound concentration applied to food 0.2 mM; 21 °C.

First: CCCCC1(COC(=O)CCC(=O)O)C(=O)N(c2ccccc2)N(c2ccccc2)C1=O
Second: CCN(CC)CCOC(=O)C(c1ccccc1)c1ccccc1
The “fraction of eclosed F1 progeny that are homozygous ATM8” value (“fraction” for short) of the first is higher: 0.143 for the first, 0.0213 for the second.

Compared with `COc1cc(NC(C)CCCN)c2ncccc2c1` (stereo unspecified), `Oc1c(Cl)cc(Cl)c2cccnc12` is lower in “fraction” value: 0.3 for the first, 0.0333 for the second.

First: Nc1ccc([As](=O)(O)O)cc1
Second: CCOC(=O)c1ccc(N)cc1
The “fraction” value of the first is lower: 0.0667 for the first, 0.114 for the second.

First: CC(C)(C)CC(C)(C)c1ccc(O)c(Cc2ccc(Cl)cc2Cl)c1
Second: CC(NC(C)(C)C)C(=O)c1cccc(Cl)c1 (stereo unspecified)
The “fraction” value of the first is lower: 0.128 for the first, 0.321 for the second.

Going from `COc1cc2occc2c2oc(=O)ccc12` to `COc1ccccc1-c1cc(=O)c2c(OC)cccc2o1`, the “fraction” value falls from 0.069 to 0.06.

Compared with `C[C@H]1[C@H](C)CC[C@]2(C(=O)O)CC[C@]3(C)C(=CC[C@@H]4[C@@]5(C)C[C@@H](O)[C@H](O)[C@@](C)(CO)[C@@H]5CC[C@]43C)[C@H]12`, `C[C@H]1[C@H](C)CC[C@]2(C(=O)O)CC[C@]3(C)C(=CC[C@@H]4[C@@]5(C)CC[C@H](O)C(C)(C)[C@@H]5CC[C@]43C)[C@H]12` is lower in “fraction” value: 0.191 for the first, 0.103 for the second.

Going from `CC(C)CCCC(C)C1CCC2C3=CCC4CC(O)CCC4(C)C3CCC21C` (stereo unspecified) to `CC(=O)[C@@]1(O)CC[C@H]2[C@@H]3CCC4=CC(=O)CC[C@]4(C)[C@H]3CC[C@@]21C`, the “fraction” value rises from 0.113 to 0.222.

First: C[C@]12CC[C@@H]3c4ccc(OS(=O)(=O)O)cc4CC[C@H]3[C@@H]1CCC2=O
Second: O=C1CC[C@@]2(O)[C@H]3Cc4ccc(O)c5c4[C@@]2(CCN3CC2CC2)[C@H]1O5
The “fraction” value of the first is higher: 0.303 for the first, 0.0942 for the second.

Compared with `COc1cccc(OC)c1C(=O)N[C@@H]1C(=O)N2[C@@H]1SC(C)(C)[C@@H]2C(=O)O`, `COc1cc(C)c(C(=O)Oc2cc(C)c(C(=O)O)c(O)c2C)c(OC)c1C` is higher in “fraction” value: 0.0244 for the first, 0.196 for the second.

Going from `Cc1ccc(S(=O)(=O)NC(=O)NN2CCCCCC2)cc1` to `O=C(c1ccc(F)cc1)C1CCN(CCn2c(=O)[nH]c3ccccc3c2=O)CC1`, the “fraction” value rises from 0.103 to 0.25.

First: Cc1ccsc1/C=C/C1=NCCCN1C
Second: CN1CCN(CC(=O)N2c3ccccc3C(=O)Nc3cccnc32)CC1
The “fraction” value of the first is lower: 0.0698 for the first, 0.111 for the second.

First: CCCCCCCCCCCCCCCCOP(=O)([O-])OCC[N+](C)(C)C
Second: CCCCCCCCCCCCCCCC(=O)OC[C@H](O)[C@H]1OC(=O)C(O)=C1O
The “fraction” value of the first is higher: 0.324 for the first, 0.0286 for the second.

Compared with `CN1C(=O)C(O)N=C(c2ccccc2)c2cc(Cl)ccc21` (stereo unspecified), `COC(=O)Nc1nc2cc(Sc3ccccc3)ccc2[nH]1` is lower in “fraction” value: 0.161 for the first, 0.037 for the second.

Compared with `COc1cc(C=CC(=O)O)cc(OC)c1O`, `CCN(CC)C(=O)c1ccc(O)c(OC)c1` is lower in “fraction” value: 0.385 for the first, 0.103 for the second.

First: COc1cc(OC)c2c(=O)c(-c3ccc4c(c3)OCO4)coc2c1
Second: COc1ccc(-c2cc(=O)c3c(O)c(OC)c(OC)c(OC)c3o2)cc1
The “fraction” value of the first is higher: 0.161 for the first, 0.102 for the second.

Compared with `O=C(COc1ccc(Cl)cc1)N1CCN(Cc2ccc3c(c2)OCO3)CC1`, `CN1CCN(C(=O)O[C@H]2c3nccnc3C(=O)N2c2ccc(Cl)cn2)CC1` is higher in “fraction” value: 0.189 for the first, 0.204 for the second.

Compared with `N[C@@H](Cc1ccc(O)cc1)C(=O)O`, `CC(N)Cc1ccc(O)cc1` (stereo unspecified) is higher in “fraction” value: 0.103 for the first, 0.25 for the second.

Compared with `O=c1c(O)cc([C@H]2Oc3cc(O)cc(O)c3C[C@H]2O)cc2c([C@H]3Oc4cc(O)cc(O)c4C[C@H]3O)cc(O)c(O)c12`, `Oc1cc2c(cc1O)C1c3ccc(O)c(O)c3OCC1(O)C2` (stereo unspecified) is higher in “fraction” value: 0.0667 for the first, 0.1 for the second.

Compared with `CCCCCCCCC(=O)NCc1ccc(O)c(OC)c1`, `C[C@@](Cc1ccc(O)c(O)c1)(NN)C(=O)O` is lower in “fraction” value: 0.186 for the first, 0.12 for the second.

Going from `CCOc1ccc2nc3cc(N)ccc3c(N)c2c1` to `CCCOc1ccc2[nH]c(NC(=O)OC)nc2c1`, the “fraction” value falls from 0.152 to 0.113.

Going from `CCN(CC)CCNc1ccc(CO)c2sc3ccccc3c(=O)c12` to `CN(C)CCC(c1ccc(Br)cc1)c1ccccn1` (stereo unspecified), the “fraction” value rises from 0.104 to 0.316.

First: CC(=O)N(CC(O)CO)c1c(I)c(C(=O)NCCO)c(I)c(C(=O)NCC(O)CO)c1I (stereo unspecified)
Second: Cc1cc2nc3c(=O)[nH]c(=O)nc-3n(C[C@H](O)[C@H](O)[C@H](O)CO)c2cc1C
The “fraction” value of the first is lower: 0.245 for the first, 0.289 for the second.

First: Cc1ccc([C@@H]2O[C@H](CO)[C@@H](O)[C@H](O)[C@H]2O)cc1Cc1ccc(-c2ccc(F)cc2)s1
Second: CCOc1nc2cccc(C(=O)O)c2n1Cc1ccc(-c2ccccc2-c2nnn[nH]2)cc1
The “fraction” value of the first is higher: 0.156 for the first, 0.037 for the second.

First: CC(C)NCC(O)COc1ccc(CC(N)=O)cc1 (stereo unspecified)
Second: NC(Cn1ccc(=O)c(O)c1)C(=O)O (stereo unspecified)
The “fraction” value of the first is lower: 0.0571 for the first, 0.405 for the second.

Compared with `COc1cc(-c2ccc(/N=N/c3ccc4c(S(=O)(=O)O)cc(S(=O)(=O)O)c(N)c4c3O)c(OC)c2)ccc1/N=N/c1ccc2c(S(=O)(=O)O)cc(S(=O)(=O)O)c(N)c2c1O`, `COc1ccc2c(c1O)-c1c(OC)c(OC)cc3c1[C@H](C2)N(C)CC3` is lower in “fraction” value: 0.0789 for the first, 0.0345 for the second.

First: O=C1CC[C@@H](C(=O)N2CSC[C@H]2C(=O)O)N1 ([pGlu]-[Thz]-OH)
Second: C[C@H]1C[C@H]2[C@@H]3CCC4=CC(=O)C=C[C@]4(C)[C@@]3(F)[C@@H](O)C[C@]2(C)[C@@]1(O)C(=O)COP(=O)(O)O
The “fraction” value of the first is higher: 0.093 for the first, 0.0566 for the second.

Going from `c1ccc(-c2ccc(C(c3ccccc3)n3ccnc3)cc2)cc1` (stereo unspecified) to `CN(C)CCOC(c1ccccc1)c1ccccc1.Cn1c(=O)c2[nH]c(Cl)nc2n(C)c1=O`, the “fraction” value falls from 0.333 to 0.0698.

First: NC(=O)c1cc([N+](=O)[O-])cc([N+](=O)[O-])c1
Second: CC(=O)O[C@@H]1C[C@H]2C(C)(C)C(=O)C=C[C@]2(C)[C@H]2CC[C@@]3(C)[C@H](c4ccoc4)OC(=O)[C@H]4O[C@]43[C@@]21C
The “fraction” value of the first is higher: 0.233 for the first, 0.231 for the second.

First: O=c1[nH]cnc2nc[nH]c12
Second: Nc1ncnc2c1ncn2[C@@H]1O[C@H](CO)[C@@H](O)[C@@H]1O
The “fraction” value of the first is higher: 0.325 for the first, 0.261 for the second.

Compared with `CCCCC(CC)COC(=O)CC(C(=O)OCC(CC)CCCC)S(=O)(=O)O` (stereo unspecified), `CCOC(=O)CC(SP(=S)(OC)OC)C(=O)OCC` (stereo unspecified) is lower in “fraction” value: 0.208 for the first, 0.174 for the second.

Compared with `O=C1NCC2(CCN(CCc3ccccc3)CC2)O1`, `Clc1ccc2c(c1)CCc1cccnc1C2=C1CCNCC1` is lower in “fraction” value: 0.0435 for the first, 0.0167 for the second.

Compared with `NC1(C(=O)O)CC1`, `O=C(O)CCCO` is lower in “fraction” value: 0.3 for the first, 0.184 for the second.

Compared with `CN(C)C(=N)NC(=N)N`, `CC(=O)OC/C=C(\C)CC/C=C(\C)CC/C=C(\C)CC/C=C(\C)CC/C=C(\C)CC/C=C(\C)CC/C=C(\C)CC/C=C(\C)CCC=C(C)C` is higher in “fraction” value: 0.0294 for the first, 0.0615 for the second.
